In the supplement of paper PMC10849652:
Some of the results follow.

Sequences of proteins named here, by UniProt entry; tags and fusion partners are left off. A change or cut given only in a name is not applied to a line headed by its entry.
UniProt P05091: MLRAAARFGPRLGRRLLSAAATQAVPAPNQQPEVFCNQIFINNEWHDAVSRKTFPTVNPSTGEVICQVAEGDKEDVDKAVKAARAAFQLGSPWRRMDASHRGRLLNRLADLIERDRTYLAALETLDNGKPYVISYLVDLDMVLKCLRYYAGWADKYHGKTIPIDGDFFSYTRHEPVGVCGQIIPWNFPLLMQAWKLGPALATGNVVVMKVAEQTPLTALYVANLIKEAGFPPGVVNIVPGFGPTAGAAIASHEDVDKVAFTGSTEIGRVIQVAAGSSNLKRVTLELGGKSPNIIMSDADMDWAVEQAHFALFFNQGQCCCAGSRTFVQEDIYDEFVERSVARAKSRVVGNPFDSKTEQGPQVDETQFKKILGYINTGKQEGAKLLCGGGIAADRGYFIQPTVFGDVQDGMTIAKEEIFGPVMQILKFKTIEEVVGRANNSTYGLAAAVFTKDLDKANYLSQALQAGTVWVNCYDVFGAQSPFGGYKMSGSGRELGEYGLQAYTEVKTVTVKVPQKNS
UniProt O43823: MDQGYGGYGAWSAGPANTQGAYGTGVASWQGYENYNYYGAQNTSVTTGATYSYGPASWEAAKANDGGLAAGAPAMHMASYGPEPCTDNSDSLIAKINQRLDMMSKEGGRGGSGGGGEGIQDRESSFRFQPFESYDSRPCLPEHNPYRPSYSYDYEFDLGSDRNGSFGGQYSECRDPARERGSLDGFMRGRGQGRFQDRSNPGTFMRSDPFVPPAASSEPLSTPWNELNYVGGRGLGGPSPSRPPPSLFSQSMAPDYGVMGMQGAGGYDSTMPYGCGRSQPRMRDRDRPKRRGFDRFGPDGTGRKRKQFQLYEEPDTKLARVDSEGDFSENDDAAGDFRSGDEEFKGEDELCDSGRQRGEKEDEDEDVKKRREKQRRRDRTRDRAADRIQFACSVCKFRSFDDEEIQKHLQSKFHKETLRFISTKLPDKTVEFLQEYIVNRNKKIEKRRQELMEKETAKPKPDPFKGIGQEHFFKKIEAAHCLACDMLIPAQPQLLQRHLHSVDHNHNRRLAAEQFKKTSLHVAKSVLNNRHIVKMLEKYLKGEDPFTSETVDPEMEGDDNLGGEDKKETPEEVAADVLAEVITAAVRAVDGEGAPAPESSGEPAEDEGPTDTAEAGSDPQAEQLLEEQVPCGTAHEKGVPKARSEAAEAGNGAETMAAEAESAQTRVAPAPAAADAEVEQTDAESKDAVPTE
UniProt Q9BT22: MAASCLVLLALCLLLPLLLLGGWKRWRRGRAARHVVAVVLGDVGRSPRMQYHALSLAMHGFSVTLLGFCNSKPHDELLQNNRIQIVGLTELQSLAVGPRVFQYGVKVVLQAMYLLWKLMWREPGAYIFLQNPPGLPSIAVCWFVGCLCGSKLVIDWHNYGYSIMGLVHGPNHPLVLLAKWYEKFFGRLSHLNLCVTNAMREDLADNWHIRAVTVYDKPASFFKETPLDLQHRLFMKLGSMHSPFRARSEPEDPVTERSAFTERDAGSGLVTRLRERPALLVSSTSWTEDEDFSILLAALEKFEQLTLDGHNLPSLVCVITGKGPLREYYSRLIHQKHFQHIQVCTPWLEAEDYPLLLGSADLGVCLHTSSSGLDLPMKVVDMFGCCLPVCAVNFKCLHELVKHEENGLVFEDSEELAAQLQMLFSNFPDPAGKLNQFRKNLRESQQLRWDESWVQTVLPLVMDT
UniProt P49189: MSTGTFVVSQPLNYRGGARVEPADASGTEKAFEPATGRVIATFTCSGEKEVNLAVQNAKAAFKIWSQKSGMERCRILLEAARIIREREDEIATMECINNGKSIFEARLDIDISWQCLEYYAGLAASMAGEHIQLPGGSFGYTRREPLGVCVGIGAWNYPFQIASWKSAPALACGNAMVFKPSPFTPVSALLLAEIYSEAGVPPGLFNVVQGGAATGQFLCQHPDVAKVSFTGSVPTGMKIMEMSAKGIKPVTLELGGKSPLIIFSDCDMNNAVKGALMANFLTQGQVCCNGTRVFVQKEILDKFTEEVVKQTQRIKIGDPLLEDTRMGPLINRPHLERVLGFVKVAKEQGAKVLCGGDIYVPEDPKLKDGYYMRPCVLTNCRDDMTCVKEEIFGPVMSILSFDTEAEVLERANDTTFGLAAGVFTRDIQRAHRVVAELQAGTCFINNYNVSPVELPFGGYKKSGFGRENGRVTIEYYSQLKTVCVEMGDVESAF
UniProt P55008: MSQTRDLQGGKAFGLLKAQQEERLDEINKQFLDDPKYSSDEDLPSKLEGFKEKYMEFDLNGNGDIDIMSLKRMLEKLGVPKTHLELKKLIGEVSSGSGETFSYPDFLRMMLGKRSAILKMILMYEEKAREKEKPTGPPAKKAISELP
UniProt Q9NYG5, whole entry, looked up: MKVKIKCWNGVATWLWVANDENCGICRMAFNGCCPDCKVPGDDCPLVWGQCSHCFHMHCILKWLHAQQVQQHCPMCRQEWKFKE
UniProt P17707: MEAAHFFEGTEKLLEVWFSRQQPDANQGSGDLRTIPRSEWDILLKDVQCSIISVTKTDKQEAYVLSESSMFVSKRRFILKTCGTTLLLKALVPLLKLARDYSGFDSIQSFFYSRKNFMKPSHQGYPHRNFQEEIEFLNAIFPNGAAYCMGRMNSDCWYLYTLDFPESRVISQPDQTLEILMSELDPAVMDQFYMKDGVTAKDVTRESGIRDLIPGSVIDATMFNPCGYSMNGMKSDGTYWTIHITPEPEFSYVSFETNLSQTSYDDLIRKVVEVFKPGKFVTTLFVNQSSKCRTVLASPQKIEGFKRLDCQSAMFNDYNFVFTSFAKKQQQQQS
UniProt Q9UHB7: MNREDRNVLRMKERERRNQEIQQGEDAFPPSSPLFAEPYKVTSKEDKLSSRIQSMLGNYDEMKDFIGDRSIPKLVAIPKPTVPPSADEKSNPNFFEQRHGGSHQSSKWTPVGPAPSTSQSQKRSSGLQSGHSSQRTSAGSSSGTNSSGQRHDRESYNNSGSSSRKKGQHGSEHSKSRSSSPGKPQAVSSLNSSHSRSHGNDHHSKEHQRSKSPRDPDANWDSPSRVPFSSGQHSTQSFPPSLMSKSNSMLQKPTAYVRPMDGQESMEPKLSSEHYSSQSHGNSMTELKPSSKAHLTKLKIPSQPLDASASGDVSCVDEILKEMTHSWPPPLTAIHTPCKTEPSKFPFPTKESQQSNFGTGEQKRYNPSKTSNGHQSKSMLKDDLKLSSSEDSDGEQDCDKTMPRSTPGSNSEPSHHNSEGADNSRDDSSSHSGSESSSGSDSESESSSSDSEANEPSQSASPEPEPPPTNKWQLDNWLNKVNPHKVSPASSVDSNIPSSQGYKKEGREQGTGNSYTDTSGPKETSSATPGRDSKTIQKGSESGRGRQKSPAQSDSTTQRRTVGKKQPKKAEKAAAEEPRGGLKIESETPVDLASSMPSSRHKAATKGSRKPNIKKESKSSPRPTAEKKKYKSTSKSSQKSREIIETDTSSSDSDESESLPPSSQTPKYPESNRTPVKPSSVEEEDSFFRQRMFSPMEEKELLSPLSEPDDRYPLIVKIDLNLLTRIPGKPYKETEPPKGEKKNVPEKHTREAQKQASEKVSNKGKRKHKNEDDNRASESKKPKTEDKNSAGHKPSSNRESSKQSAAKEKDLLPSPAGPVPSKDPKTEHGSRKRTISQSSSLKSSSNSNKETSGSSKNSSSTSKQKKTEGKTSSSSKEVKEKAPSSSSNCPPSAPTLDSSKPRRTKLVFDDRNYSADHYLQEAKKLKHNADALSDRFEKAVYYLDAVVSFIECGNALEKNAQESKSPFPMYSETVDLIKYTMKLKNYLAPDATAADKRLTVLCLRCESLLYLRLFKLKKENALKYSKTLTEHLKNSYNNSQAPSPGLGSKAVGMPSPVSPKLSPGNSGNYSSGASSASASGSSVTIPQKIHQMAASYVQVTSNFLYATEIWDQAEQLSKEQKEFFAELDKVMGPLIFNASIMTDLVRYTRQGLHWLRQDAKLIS
UniProt Q9Y672: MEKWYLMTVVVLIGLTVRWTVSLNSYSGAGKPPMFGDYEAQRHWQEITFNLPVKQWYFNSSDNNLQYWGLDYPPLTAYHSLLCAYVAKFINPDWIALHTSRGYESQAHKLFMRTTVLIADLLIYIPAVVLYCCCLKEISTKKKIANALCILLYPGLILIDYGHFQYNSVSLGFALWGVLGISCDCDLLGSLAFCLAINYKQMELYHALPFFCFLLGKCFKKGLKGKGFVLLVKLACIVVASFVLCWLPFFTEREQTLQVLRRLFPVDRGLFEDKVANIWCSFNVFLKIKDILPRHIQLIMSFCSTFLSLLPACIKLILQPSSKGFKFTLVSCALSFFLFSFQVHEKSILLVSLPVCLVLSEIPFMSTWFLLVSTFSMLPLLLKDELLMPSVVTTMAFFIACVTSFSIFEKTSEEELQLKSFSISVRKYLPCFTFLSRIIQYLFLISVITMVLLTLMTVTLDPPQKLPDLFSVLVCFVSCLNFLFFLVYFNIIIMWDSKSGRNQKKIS
UniProt P02760: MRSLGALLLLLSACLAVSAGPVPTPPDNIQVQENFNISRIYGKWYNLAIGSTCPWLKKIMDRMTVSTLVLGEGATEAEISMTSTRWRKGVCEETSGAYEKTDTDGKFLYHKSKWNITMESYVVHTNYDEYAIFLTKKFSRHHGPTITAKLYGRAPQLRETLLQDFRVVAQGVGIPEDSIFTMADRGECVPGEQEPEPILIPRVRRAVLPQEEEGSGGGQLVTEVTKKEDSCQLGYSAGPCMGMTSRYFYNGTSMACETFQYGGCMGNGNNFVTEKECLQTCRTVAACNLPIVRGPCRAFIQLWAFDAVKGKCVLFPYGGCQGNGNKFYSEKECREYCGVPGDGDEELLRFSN

Key:
Test in all cases: log2 fold change, soluble protein after heating vs DMSO (PISA); higher = thermal stabilisation; K562 cells, 10 uM, 30 min; active = over 0.2 and 3.5 SD of the protein, either way, in both replicates (recomputed)
bafetinib = compound: Cc1ccc(NC(=O)c2ccc(CN3CC[C@H](N(C)C)C3)c(C(F)(F)F)c2)cc1Nc1nccc(-c2cncnc2)n1 [bafetinib]
Procedure, shortened: (§1)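 For each measurement, 10 μM compound was applied for 30 min to K562 cells at 2×10^6 cells/mL. Aliquots were heated for 3 min across 48°C-58°C, pooled, and extracted in PBS with 0.5% NP-40 at 4°C; the supernatant after 21,000xg for 90 min was soluble protein. This was quantified by TMTpro 16plex LC-MS/MS with channel sums equalised, and thermal stability was reported relative to control samples from duplicates, on a log2 fold-change scale.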

[1] = compound: Cc1cccc(CC(=O)N2CCc3c2ccc(-c2cn(C)c4ncnc(N)c24)c3F)n1
Procedure, shortened: as §1

nilotinib = compound: Cc1cn(-c2cc(NC(=O)c3ccc(C)c(Nc4nccc(-c5cccnc5)n4)c3)cc(C(F)(F)F)c2)cn1 [nilotinib]
Procedure, shortened: as §1

[2] = compound: Cc1nc(Nc2n[nH]c3c2CN(C(=O)N[C@H](CN(C)C)c2ccccc2)C3(C)C)c2sccc2n1
Procedure, shortened: as §1

dasatinib = compound: Cc1nc(Nc2ncc(C(=O)Nc3c(C)cccc3Cl)s2)cc(N2CCN(CCO)CC2)n1 [dasatinib]
Procedure, shortened: as §1

[3] = compound: Cc1ncc(-c2ccnc(Nc3ccc(S(C)(=O)=O)cc3)n2)n1C(C)C
Procedure, shortened: as §1

[4] = compound: Cn1cc(-c2ccc3c(c2)CCN3C(=O)Cc2cccc(C(F)(F)F)c2)c2c(N)ncnc21
Procedure, shortened: as §1

[5] = compound: Cn1cc(-c2ccc3nnc(C(F)(F)c4ccc5ncccc5c4)n3n2)cn1
Procedure, shortened: as §1

tipifarnib = compound: Cn1cncc1[C@@](N)(c1ccc(Cl)cc1)c1ccc2c(c1)c(-c1cccc(Cl)c1)cc(=O)n2C [tipifarnib]
Procedure, shortened: as §1

mubritinib = compound: FC(F)(F)c1ccc(/C=C/c2nc(COc3ccc(CCCCn4ccnn4)cc3)co2)cc1 [mubritinib]
Procedure, shortened: as §1

[6] = compound: NC(=O)Nc1cc(-c2cccc(F)c2)sc1C(=O)N[C@H]1CCCNC1
Procedure, shortened: as §1

[7] = compound: NC(=O)c1cnc(N[C@@H]2CCCC[C@@H]2N)nc1Nc1cccc(-n2nccn2)c1
Procedure, shortened: as §1

[8] = compound: NC1(c2ccc(-c3nc4ccn5c(=O)[nH]nc5c4cc3-c3ccccc3)cc2)CCC1
Procedure, shortened: as §1

[9] = compound: NCC(=O)Nc1ccc(-n2nc(C(F)(F)F)cc2-c2ccc3c(ccc4ccccc43)c2)cc1
Procedure, shortened: as §1

entinostat = compound: Nc1ccccc1NC(=O)c1ccc(CNC(=O)OCc2cccnc2)cc1 [entinostat]
Procedure, shortened: as §1

vorinostat = compound: O=C(CCCCCCC(=O)Nc1ccccc1)NO [vorinostat]
Procedure, shortened: as §1

citarinostat = compound: O=C(CCCCCCNC(=O)c1cnc(N(c2ccccc2)c2ccccc2Cl)nc1)NO [citarinostat]
Procedure, shortened: as §1

silmitasertib = compound: O=C(O)c1ccc2c(c1)nc(Nc1cccc(Cl)c1)c1ccncc12 [silmitasertib]
Procedure, shortened: as §1

[10] = compound: O=C1NC(=O)C(c2cnc3ccccn23)=C1c1cn2c3c(cc(F)cc13)CN(C(=O)N1CCCCC1)CC2
Procedure, shortened: as §1

[11] = compound: c1cc(OCCN2CCCCC2)cc(-c2n[nH]c3ccc(-c4nnc[nH]4)cc23)c1
Procedure, shortened: as §1

Target	log2 fold change (bafetinib)	log2 fold change [1]	log2 fold change (nilotinib)	log2 fold change [2]	log2 fold change (dasatinib)	log2 fold change [3]	log2 fold change [4]	log2 fold change [5]	log2 fold change (tipifarnib)	log2 fold change (mubritinib)	log2 fold change [6]	log2 fold change [7]	log2 fold change [8]	log2 fold change [9]	log2 fold change (entinostat)	log2 fold change (vorinostat)	log2 fold change (citarinostat)	log2 fold change (silmitasertib)	log2 fold change [10]	log2 fold change [11]
ALDH2 (UniProt P05091)	inactive: 0.009	inactive: -0.02	inactive: 0.006	inactive: -0.016	inactive: -0.034	inactive: 0.019	inactive: 0.072	inactive: 0.059	inactive: -0.005	inactive: 0.07	inactive: 0.012	inactive: -0.039	inactive: -0.046	inactive: -0.016	inactive: -0.007	active: 0.216	inactive: 0.043	inactive: -0.038	inactive: -0.001	inactive: -0.023
AKAP8 (UniProt O43823)	inactive: -0.051	inactive: -0.008	inactive: -0.001	inactive: -0.044	inactive: -0.155	inactive: -0.042	inactive: -0.007	inactive: -0.049	inactive: 0.022	inactive: 0.028	inactive: -0.043	inactive: -0.037	inactive: 0.023	inactive: -0.012	inactive: -0.024	inactive: 0.01	inactive: 0.002	inactive: -0.13	inactive: -0.1	inactive: -0.043
ALG1 (UniProt Q9BT22)	inactive: 0.016	inactive: 0.02	inactive: 0.065	inactive: 0.074	inactive: -0.059	inactive: 0.012	inactive: -0.017	inactive: -0.002	inactive: -0.049	inactive: 0.09	inactive: -0.056	inactive: -0.024	inactive: -0.19	inactive: -0.072	inactive: -0.06	inactive: -0.039	inactive: -0.004	inactive: -0.014	inactive: -0.043	inactive: 0.018
AGO4 (UniProt Q9HCK5)	inactive: 0.015	inactive: -0.119	inactive: -0.061	inactive: 0.077	inactive: 0.045	inactive: 0.086	inactive: -0.037	inactive: -0.11	inactive: -0.024	inactive: -0.025	inactive: 0.223	inactive: 0.007	inactive: 0.037	inactive: 0.091	inactive: -0.069	inactive: 0.082	inactive: 0.046	inactive: 0.028	inactive: 0.073	inactive: -0.152
ALDH9A1 isoform 3 (UniProt P49189)	inactive: -0.003	inactive: 0.001	inactive: 0.012	inactive: -0.019	inactive: 0.025	inactive: -0.018	inactive: 0.041	inactive: 0.001	inactive: -0.002	inactive: -0.005	inactive: 0.04	inactive: -0.025	inactive: -0.011	inactive: -0.05	inactive: 0.003	inactive: -0.003	inactive: 0.025	inactive: -0.045	inactive: -0.033	inactive: 0.015
AIF1 (UniProt P55008)	inactive: 0.035	–	–	–	–	–	–	inactive: 0.153	inactive: 0.051	–	inactive: 0.04	inactive: 0.004	–	inactive: 0.021	inactive: -0.105	–	–	–	inactive: 0.068	–
ANAPC11 (UniProt Q9NYG5)	inactive: -0.063	–	–	–	inactive: -0.016	–	inactive: -0.091	–	–	–	–	–	–	inactive: 0.059	–	–	inactive: 0.18	–	–	inactive: -0.038
AMD1 (UniProt P17707)	inactive: 0.091	inactive: -0.141	inactive: -0.089	inactive: 0.001	–	inactive: -0.037	–	inactive: -0.071	inactive: -0.022	inactive: 0.056	inactive: 0.043	inactive: -0.091	inactive: -0.074	inactive: -0.149	inactive: -0.038	inactive: -0.093	inactive: 0.007	inactive: 0.004	inactive: -0.007	inactive: -0.08
AFF4 (UniProt Q9UHB7)	inactive: 0.415	inactive: -0.069	–	–	inactive: -0.044	–	–	–	–	inactive: -0.041	inactive: -0.338	inactive: 0.034	inactive: -0.358	–	inactive: 0.008	inactive: 0.199	–	inactive: 0.02	inactive: 0.166	–
ALG6 (UniProt Q9Y672)	inactive: 0.005	inactive: 0.016	inactive: 0.037	inactive: 0.002	inactive: -0.032	inactive: -0.049	inactive: -0.016	–	inactive: -0.075	inactive: 0.026	inactive: -0.005	inactive: -0.028	inactive: -0.201	inactive: -0.02	inactive: 0.019	inactive: 0.017	inactive: 0.005	inactive: 0.021	inactive: -0.011	inactive: -0.047
AMBP (UniProt P02760)	inactive: -0.235	inactive: -0.01	–	–	inactive: 0	–	inactive: 0.21	–	inactive: 0.12	inactive: -0.298	–	–	inactive: 0.119	inactive: 0.216	–	inactive: 0.247	inactive: -0.04	inactive: 0.125	–	inactive: 0.547
